Reference: PMC5915391
Results are given in words; binding and its absence hold for the method and conditions named. In cells and extracts the contact can be indirect. Some binding calls cover weakened binding; strength is not graded here.

The chains behind the UniProt entries cited, without tags or fusion partners. A line that says so, or that is headed by a name, gives the form on record, which may keep a tag or linker. Residues count along the entry.
FLAG-tagged MLL (1-1251aa) (Q03164, residues 1-1251): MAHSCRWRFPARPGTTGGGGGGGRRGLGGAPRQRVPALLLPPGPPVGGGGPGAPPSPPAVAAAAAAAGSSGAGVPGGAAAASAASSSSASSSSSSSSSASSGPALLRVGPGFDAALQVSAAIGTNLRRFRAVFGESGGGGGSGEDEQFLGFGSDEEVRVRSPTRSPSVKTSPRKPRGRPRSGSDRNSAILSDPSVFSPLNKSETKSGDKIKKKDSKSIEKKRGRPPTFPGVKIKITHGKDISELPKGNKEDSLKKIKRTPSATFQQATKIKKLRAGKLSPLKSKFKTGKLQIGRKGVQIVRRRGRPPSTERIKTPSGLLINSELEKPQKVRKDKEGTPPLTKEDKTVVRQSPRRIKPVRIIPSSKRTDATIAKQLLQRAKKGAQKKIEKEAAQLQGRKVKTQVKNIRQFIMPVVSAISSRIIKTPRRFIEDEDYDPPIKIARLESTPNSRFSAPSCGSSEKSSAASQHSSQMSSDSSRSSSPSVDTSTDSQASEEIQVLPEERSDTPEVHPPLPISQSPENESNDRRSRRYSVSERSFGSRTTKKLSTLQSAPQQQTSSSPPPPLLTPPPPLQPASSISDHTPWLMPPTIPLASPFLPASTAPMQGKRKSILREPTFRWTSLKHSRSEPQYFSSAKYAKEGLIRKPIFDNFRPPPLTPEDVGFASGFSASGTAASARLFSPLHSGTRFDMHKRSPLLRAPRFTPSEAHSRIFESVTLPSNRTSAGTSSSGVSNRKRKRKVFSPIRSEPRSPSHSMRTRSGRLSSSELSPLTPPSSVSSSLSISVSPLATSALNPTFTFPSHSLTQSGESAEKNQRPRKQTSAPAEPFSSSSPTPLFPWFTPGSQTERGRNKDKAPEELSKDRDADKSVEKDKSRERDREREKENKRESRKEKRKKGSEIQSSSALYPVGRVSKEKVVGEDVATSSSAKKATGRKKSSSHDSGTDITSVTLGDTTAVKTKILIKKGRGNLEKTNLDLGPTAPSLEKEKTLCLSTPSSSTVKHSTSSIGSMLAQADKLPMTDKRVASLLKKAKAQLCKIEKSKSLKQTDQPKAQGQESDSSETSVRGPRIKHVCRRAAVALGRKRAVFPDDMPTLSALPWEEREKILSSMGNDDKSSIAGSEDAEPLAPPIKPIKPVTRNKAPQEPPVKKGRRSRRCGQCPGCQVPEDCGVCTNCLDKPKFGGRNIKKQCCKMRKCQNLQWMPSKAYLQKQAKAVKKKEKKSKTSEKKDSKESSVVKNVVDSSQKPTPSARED
FLAG-tagged MLL (1-540aa) (Q03164, residues 1-540): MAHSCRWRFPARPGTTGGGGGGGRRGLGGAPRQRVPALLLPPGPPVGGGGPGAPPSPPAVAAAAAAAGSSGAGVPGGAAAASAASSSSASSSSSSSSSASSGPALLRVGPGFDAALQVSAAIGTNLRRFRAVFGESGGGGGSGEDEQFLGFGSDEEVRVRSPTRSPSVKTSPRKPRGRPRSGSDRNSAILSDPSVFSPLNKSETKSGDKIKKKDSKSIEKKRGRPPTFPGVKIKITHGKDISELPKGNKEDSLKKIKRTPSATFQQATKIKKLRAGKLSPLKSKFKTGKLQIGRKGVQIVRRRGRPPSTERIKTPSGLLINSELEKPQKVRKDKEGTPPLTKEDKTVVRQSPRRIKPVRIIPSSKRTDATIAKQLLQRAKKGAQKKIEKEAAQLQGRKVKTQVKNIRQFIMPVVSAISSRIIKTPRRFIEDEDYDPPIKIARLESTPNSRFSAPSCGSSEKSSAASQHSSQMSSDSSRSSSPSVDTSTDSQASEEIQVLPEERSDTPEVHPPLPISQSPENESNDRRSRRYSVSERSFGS
UniProt Q9C0J9: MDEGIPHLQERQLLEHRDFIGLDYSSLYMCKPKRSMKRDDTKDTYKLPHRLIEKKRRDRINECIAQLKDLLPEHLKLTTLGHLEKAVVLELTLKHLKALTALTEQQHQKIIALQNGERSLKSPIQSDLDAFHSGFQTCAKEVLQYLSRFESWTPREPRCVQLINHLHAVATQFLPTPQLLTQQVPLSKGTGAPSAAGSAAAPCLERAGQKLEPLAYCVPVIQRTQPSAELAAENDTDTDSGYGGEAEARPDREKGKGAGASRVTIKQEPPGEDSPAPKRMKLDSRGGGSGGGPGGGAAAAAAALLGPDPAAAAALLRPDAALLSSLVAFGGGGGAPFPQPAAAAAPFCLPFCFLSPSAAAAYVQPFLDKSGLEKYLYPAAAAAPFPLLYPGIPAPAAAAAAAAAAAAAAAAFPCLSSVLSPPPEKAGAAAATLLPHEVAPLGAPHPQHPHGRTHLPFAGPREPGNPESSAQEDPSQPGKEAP

Tests used:
[1] = biological target: FLAG-tagged MLL (1-540aa) (UniProt Q03164); experiment: co-IP; 293T cells transfected with FLAG-tagged MLL deletion mutants and HA-tagged SHARP1; whole cell lysates; immunoprecipitation with anti-FLAG antibody, 4 °C; blots for FLAG and HA
[2] = biological target: FLAG-tagged MLL (1-1251aa) (UniProt Q03164); experiment: as above

binding [1]: no binding | binding [2]: binds
Substance: HA-tagged SHARP1 (human) (from UniProt Q9C0J9 1-482)
